The values below come from PMC3514159.

Chains of the proteins cited; added tags and fusions are not shown.
UniProt P09022: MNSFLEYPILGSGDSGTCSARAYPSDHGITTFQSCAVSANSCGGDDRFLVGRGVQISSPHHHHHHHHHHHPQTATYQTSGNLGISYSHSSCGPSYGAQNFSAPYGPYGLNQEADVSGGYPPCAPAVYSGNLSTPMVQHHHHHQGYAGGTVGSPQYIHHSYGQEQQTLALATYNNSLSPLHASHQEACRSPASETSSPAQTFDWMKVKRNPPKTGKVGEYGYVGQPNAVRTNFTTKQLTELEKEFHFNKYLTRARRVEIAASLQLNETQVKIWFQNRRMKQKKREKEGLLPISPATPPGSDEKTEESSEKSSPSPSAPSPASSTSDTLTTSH

No constants are given. Whether binding was seen depends on the method and setting. For some of these results: In cells and extracts the contact can be indirect. Some results given as binding are weak or reduced against the parent protein; the word gives no strength. For some of these results: Tags and fused reporters may be left off the sequences shown.

Test [1] addresses VC155-Hoxa1 (mouse) (UniProt P09022). The test is described as follows: split reporter; BiFC in transfected MCF10A cells: VN173-hORF with VC155-Hoxa1; fixed 24 h after transfection, confocal microscopy.
A further test has as its target Hoxa1 (mouse) (UniProt P09022). Kind of test: two-hybrid; DB-Hoxa1 (Gal4 DNA binding domain) in MATα Y8930 mated with the AD-hORF library (human ORFeome v3.1) in MATa Y8800; 30°C; selection on Sc-L-T-H + 1 mM 3AT, retest on Sc-L-T-H, Sc-L-T-A and Sc-L-T-H-A+3AT.
The target in test [2] is VC155-Hoxa1 (mouse) (UniProt P09022). Kind of test: split reporter; BiFC in transfected COS7 cells: VN173, VN173-PBX1A, VC155 and VC155-Hoxa1 in combinations; Venus fluorescence.

B1: TNF receptor-associated factor 1 (protein, UniProt Q13077 1-416)
chain: MASSSGSSPRPAPDENEFPFGCPPTVCQDPKEPRALCCAGCLSENPRNGEDQICPKCRGEDLQSISPGSRLRTQEKAHPEVAEAGIGCPFAGVGCSFKGSPQSVQEHEVTSQTSHLNLLLGFMKQWKARLGCGLESGPMALEQNLSDLQLQAAVEVAGDLEVDCYRAPCSESQEELALQHFMKEKLLAELEGKLRVFENIVAVLNKEVEASHLALATSIHQSQLDRERILSLEQRVVELQQTLAQKDQALGKLEQSLRLMEEASFDGTFLWKITNVTRRCHESACGRTVSLFSPAFYTAKYGYKLCLRLYLNGDGTGKRTHLSLFIVIMRGEYDALLPWPFRNKVTFMLLDQNNREHAIDAFRPDLSSASFQRPQSETNVASGCPLFFPLSKLQSPKHAYVKDDTMFLKCIVETST
As to B1, the binding result with VC155-Hoxa1 (mouse) [1] and with Hoxa1 (mouse) was “binds” each time.

B2: O-linked N-acetylglucosamine (GlcNAc) transferase (protein, UniProt O15294 1-1046)
chain: MASSVGNVADSTEPTKRMLSFQGLAELAHREYQAGDFEAAERHCMQLWRQEPDNTGVLLLLSSIHFQCRRLDRSAHFSTLAIKQNPLLAEAYSNLGNVYKERGQLQEAIEHYRHALRLKPDFIDGYINLAAALVAAGDMEGAVQAYVSALQYNPDLYCVRSDLGNLLKALGRLEEAKACYLKAIETQPNFAVAWSNLGCVFNAQGEIWLAIHHFEKAVTLDPNFLDAYINLGNVLKEARIFDRAVAAYLRALSLSPNHAVVHGNLACVYYEQGLIDLAIDTYRRAIELQPHFPDAYCNLANALKEKGSVAEAEDCYNTALRLCPTHADSLNNLANIKREQGNIEEAVRLYRKALEVFPEFAAAHSNLASVLQQQGKLQEALMHYKEAIRISPTFADAYSNMGNTLKEMQDVQGALQCYTRAIQINPAFADAHSNLASIHKDSGNIPEAIASYRTALKLKPDFPDAYCNLAHCLQIVCDWTDYDERMKKLVSIVADQLEKNRLPSVHPHHSMLYPLSHGFRKAIAERHGNLCLDKINVLHKPPYEHPKDLKLSDGRLRVGYVSSDFGNHPTSHLMQSIPGMHNPDKFEVFCYALSPDDGTNFRVKVMAEANHFIDLSQIPCNGKAADRIHQDGIHILVNMNGYTKGARNELFALRPAPIQAMWLGYPGTSGALFMDYIITDQETSPAEVAEQYSEKLAYMPHTFFIGDHANMFPHLKKKAVIDFKSNGHIYDNRIVLNGIDLKAFLDSLPDVKIVKMKCPDGGDNADSSNTALNMPVIPMNTIAEAVIEMINRGQIQITINGFSISNGLATTQINNKAATGEEVPRTIIVTTRSQYGLPEDAIVYCNFNQLYKIDPSTLQMWANILKRVPNSVLWLLRFPAVGEPNIQQYAQNMGLPQNRIIFSPVAPKEEHVRRGQLADVCLDTPLCNGHTTGMDVLWAGTPMVTMPGETLASRVAASQLTCLGCLELIAKNRQEYEDIAVKLGTDLEYLKKVRGKVWKQRISSPLFNTKQYTMELERLYLQMWEHYAAGNKPDHMIKPVEVTESA
In the case of B2, the binding result in the test with VC155-Hoxa1 (mouse) [1] and with Hoxa1 (mouse) was “binds” in each case.

B3: thyroid hormone receptor interactor 6 (protein, UniProt Q15654 1-476)
chain: MSGPTWLPPKQPEPARAPQGRAIPRGTPGPPPAHGAALQPHPRVNFCPLPSEQCYQAPGGPEDRGPAWVGSHGVLQHTQGLPADRGGLRPGSLDAEIDLLSSTLAELNGGRGHASRRPDRQAYEPPPPPAYRTGSLKPNPASPLPASPYGGPTPASYTTASTPAGPAFPVQVKVAQPVRGCGPPRRGASQASGPLPGPHFPLPGRGEVWGPGYRSQREPGPGAKEEAAGVSGPAGRGRGGEHGPQVPLSQPPEDELDRLTKKLVHDMNHPPSGEYFGQCGGCGEDVVGDGAGVVALDRVFHVGCFVCSTCRAQLRGQHFYAVERRAYCEGCYVATLEKCATCSQPILDRILRAMGKAYHPGCFTCVVCHRGLDGIPFTVDATSQIHCIEDFHRKFAPRCSVCGGAIMPEPGQEETVRIVALDRSFHIGCYKCEECGLLLSSEGECQGCYPLDGHILCKACSAWRIQELSATVTTDC
B3: the binding entry in the test with VC155-Hoxa1 (mouse) [1] and with Hoxa1 (mouse) was “binds” each time.

B4: regulator of G-protein signaling 20 (protein, UniProt O76081 1-388)
chain: MPQLSQDNQECLQKHFSRPSIWTQFLPLFRAQRYNTDIHQITENEGDLRAVPDIKSFPPAQLPDSPAAPKLFGLLSSPLSSLARFFSHLLRRPPPEAPRRRLDFSPLLPALPAARLSRGHEELPGRLSLLLGAALALPGRPSGGRPLRPPHPVAKPREEDATAGQSSPMPQMGSERMEMRKRQMPAAQDTPGAAPGQPGAGSRGSNACCFCWCCCCSCSCLTVRNQEDQRPTIASHELRADLPTWEESPAPTLEEVNAWAQSFDKLMVTPAGRNAFREFLRTEFSEENMLFWMACEELKKEANKNIIEEKARIIYEDYISILSPKEVSLDSRVREVINRNMVEPSQHIFDDAQLQIYTLMHRDSYPRFMNSAVYKDLLQSLSEKSIEA
Consider B4, for which the binding entry in the test with VC155-Hoxa1 (mouse) [1] and with Hoxa1 (mouse) was “binds” each time.

B5: PR domain containing 14 (protein, UniProt Q9GZV8 1-571)
chain: MALPRPSEAVPQDKVCYPPESSPQNLAAYYTPFPSYGHYRNSLATVEEDFQPFRQLEAAASAAPAMPPFPFRMAPPLLSPGLGLQREPLYDLPWYSKLPPWYPIPHVPREVPPFLSSSHEYAGASSEDLGHQIIGGDNESGPCCGPDTLIPPPPADASLLPEGLRTSQLLPCSPSKQSEDGPKPSNQEGKSPARFQFTEEDLHFVLYGVTPSLEHPASLHHAISGLLVPPDSSGSDSLPQTLDKDSLQLPEGLCLMQTVFGEVPHFGVFCSSFIAKGVRFGPFQGKVVNASEVKTYGDNSVMWEIFEDGHLSHFIDGKGGTGNWMSYVNCARFPKEQNLVAVQCQGHIFYESCKEIHQNQELLVWYGDCYEKFLDIPVSLQVTEPGKQPSGPSEESAEGYRCERCGKVFTYKYYRDKHLKYTPCVDKGDRKFPCSLCKRSFEKRDRLRIHILHVHEKHRPHKCSTCGKCFSQSSSLNKHMRVHSGDRPYQCVYCTKRFTASSILRTHIRQHSGEKPFKCKYCGKSFASHAAHDSHVRRSHKEDDGCSCSICGKIFSDQETFYSHMKFHEDY
In the case of B5, the binding entry with VC155-Hoxa1 (mouse) [1] and in the test with Hoxa1 (mouse) was “binds” in each case.

B6: phospholipid scramblase 1 (protein, UniProt O15162 1-318)
chain: MDKQNSQMNASHPETNLPVGYPPQYPPTAFQGPPGYSGYPGPQVSYPPPPAGHSGPGPAGFPVPNQPVYNQPVYNQPVGAAGVPWMPAPQPPLNCPPGLEYLSQIDQILIHQQIELLEVLTGFETNNKYEIKNSFGQRVYFAAEDTDCCTRNCCGPSRPFTLRIIDNMGQEVITLERPLRCSSCCCPCCLQEIEIQAPPGVPIGYVIQTWHPCLPKFTIQNEKREDVLKISGPCVVCSCCGDVDFEIKSLDEQCVVGKISKHWTGILREAFTDADNFGIQFPLDLDVKMKAVMIGACFLIDFMFFESTGSQEQKSGVW
For the molecule B6, the binding entry in the test with VC155-Hoxa1 (mouse) [1] and with Hoxa1 (mouse) was “binds” each time.

B7: phospholipid scramblase 4 (protein, UniProt Q9NRQ2 1-329)
chain: MSGVVPTAPEQPAGEMENQTKPPDPRPDAPPEYNSHFLPGPPGTAVPPPTGYPGGLPMGYYSPQQPSTFPLYQPVGGIHPVRYQPGKYPMPNQSVPITWMPGPTPMANCPPGLEYLVQLDNIHVLQHFEPLEMMTCFETNNRYDIKNNSDQMVYIVTEDTDDFTRNAYRTLRPFVLRVTDCMGREIMTMQRPFRCTCCCFCCPSARQELEVQCPPGVTIGFVAEHWNLCRAVYSIQNEKKENVMRVRGPCSTYGCGSDSVFEVKSLDGISNIGSIIRKWNGLLSAMADADHFDIHFPLDLDVKMKAMIFGACFLIDFMYFERSPPQRSR
B7: the binding entry with VC155-Hoxa1 (mouse) [1] and with Hoxa1 (mouse) was “binds” throughout.

B8: VN173-PBX1A (protein, UniProt P40424-1 1-430)
chain: MDEQPRLMHSHAGVGMAGHPGLSQHLQDGAGGTEGEGGRKQDIGDILQQIMTITDQSLDEAQARKHALNCHRMKPALFNVLCEIKEKTVLSIRGAQEEEPTDPQLMRLDNMLLAEGVAGPEKGGGSAAAAAAAAASGGAGSDNSVEHSDYRAKLSQIRQIYHTELEKYEQACNEFTTHVMNLLREQSRTRPISPKEIERMVSIIHRKFSSIQMQLKQSTCEAVMILRSRFLDARRKRRNFNKQATEILNEYFYSHLSNPYPSEEAKEELAKKCGITVSQVSNWFGNKRIRYKKNIGKFQEEANIYAAKTAVTATNVSAHGSQANSPSTPNSAGSSSSFNMSNSGDLFMSVQSLNGDSYQGAQVGANVQSQVDTLRHVISQTGGYSDGLAASQMYSPQGISANGGWQDATTPSSVTSPTEGPGSVHSDTSN
On to B8, for which the binding result with VC155-Hoxa1 (mouse) [2] was “binds”.

B9: zinc finger and BTB domain containing 16 (protein, UniProt Q05516 1-673)
chain: MDLTKMGMIQLQNPSHPTGLLCKANQMRLAGTLCDVVIMVDSQEFHAHRTVLACTSKMFEILFHRNSQHYTLDFLSPKTFQQILEYAYTATLQAKAEDLDDLLYAAEILEIEYLEEQCLKMLETIQASDDNDTEATMADGGAEEEEDRKARYLKNIFISKHSSEESGYASVAGQSLPGPMVDQSPSVSTSFGLSAMSPTKAAVDSLMTIGQSLLQGTLQPPAGPEEPTLAGGGRHPGVAEVKTEMMQVDEVPSQDSPGAAESSISGGMGDKVEERGKEGPGTPTRSSVITSARELHYGREESAEQVPPPAEAGQAPTGRPEHPAPPPEKHLGIYSVLPNHKADAVLSMPSSVTSGLHVQPALAVSMDFSTYGGLLPQGFIQRELFSKLGELAVGMKSESRTIGEQCSVCGVELPDNEAVEQHRKLHSGMKTYGCELCGKRFLDSLRLRMHLLAHSAGAKAFVCDQCGAQFSKEDALETHRQTHTGTDMAVFCLLCGKRFQAQSALQQHMEVHAGVRSYICSECNRTFPSHTALKRHLRSHTGDHPYECEFCGSCFRDESTLKSHKRIHTGEKPYECNGCGKKFSLKHQLETHYRVHTGEKPFECKLCHQRSRDYSAMIKHLRTHNGASPYQCTICTEYCPSLSSMQKHMKGHKPEEIPPDWRIEKTYLYLCYV
In the case of B9, the binding entry in the test with VC155-Hoxa1 (mouse) [1] and with Hoxa1 (mouse) was “binds” in each case.

B10: sprouty homolog 1 (protein, UniProt O43609 1-319)
chain: MDPQNQHGSGSSLVVIQQPSLDSRQRLDYEREIQPTAILSLDQIKAIRGSNEYTEGPSVVKRPAPRTAPRQEKHERTHEIIPINVNNNYEHRHTSHLGHAVLPSNARGPILSRSTSTGSAASSGSNSSASSEQGLLGRSPPTRPVPGHRSERAIRTQPKQLIVDDLKGSLKEDLTQHKFICEQCGKCKCGECTAPRTLPSCLACNRQCLCSAESMVEYGTCMCLVKGIFYHCSNDDEGDSYSDNPCSCSQSHCCSRYLCMGAMSLFLPCLLCYPPAKGCLKLCRRCYDWIHRPGCRCKNSNTVYCKLESCPSRGQGKPS
In the case of B10, the binding entry with VC155-Hoxa1 (mouse) [1] and in the test with Hoxa1 (mouse) was “binds” throughout.
